No constants are given. Whether binding was seen depends on the method and setting. Some results given as binding are weak or reduced against the parent protein; the word gives no strength.
B1: compound 4, OPEG4-(KETVV)2 (peptide)
peptide: KETVV
modifications: N-terminus joined to the OPEG4 linker that bridges the two copies
B2: compound 5, OPEG4-(KETRV)2 (peptide)
peptide: KETRV
modifications: N-terminus joined to the OPEG4 linker that bridges the two copies
B3: compound 6, OPEG4-(ISTDV)2 (peptide)
peptide: ISTDV
modifications: N-terminus joined to the OPEG4 linker that bridges the two copies
B4: compound 7, OPEG4-(VETVV)2 (peptide)
peptide: VETVV
modifications: N-terminus joined to the OPEG4 linker that bridges the two copies

Amino acid sequences for entries named in this document (tags omitted). Residues count along the entry.
UniProt P78352, residues 61-249: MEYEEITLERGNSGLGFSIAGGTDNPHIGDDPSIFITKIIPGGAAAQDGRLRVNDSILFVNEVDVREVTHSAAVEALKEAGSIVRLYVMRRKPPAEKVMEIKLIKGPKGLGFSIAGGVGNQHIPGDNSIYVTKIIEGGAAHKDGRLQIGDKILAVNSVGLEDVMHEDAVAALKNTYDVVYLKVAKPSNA

These binders were tested against PDZ1-2 of PSD-95 (postsynaptic density protein-95) (UniProt P78352) (assay: FP competition assay).

For B1, which binding is on record?
Its binding is “binds”.

How did the binding turn out when B2 was run?
The binding was “binds”.

Which binding does the source give for B3 here?
Its binding is “binds”.

For B4, which binding is on record?
The binding was “binds”.
